Results are given in words; binding and its absence hold for the method and conditions named. Binding seen in cells or lysates may run through a third protein. These calls come from enrichment with a bait or labelling near it, and not all partners need be listed.
Biological target: Flag-IPADP1 (IPA-derived protein 1) (human)
Experiment: affinity purification with mass spectrometry

binding: binds
B1: MSH4 (protein, UniProt O15457 1-936)
chain: MLRPEISSTSPSAPAVSPSSGETRSPQGPRYNFGLQETPQSRPSVQVVSASTCPGTSGAAGDRSSSSSSLPCPAPNSRPAQGSYFGNKRAYAENTVASNFTFGASSSSARDTNYPQTLKTPLSTGNPQRSGYKSWTPQVGYSASSSSAISAHSPSVIVAVVEGRGLARGEIGMASIDLKNPQIILSQFADNTTYAKVITKLKILSPLEIIMSNTACAVGNSTKLFTLITENFKNVNFTTIQRKYFNETKGLEYIEQLCIAEFSTVLMEVQSKYYCLAAVAALLKYVEFIQNSVYAPKSLKICFQGSEQTAMIDSSSAQNLELLINNQDYRNNHTLFGVLNYTKTPGGSRRLRSNILEPLVDIETINMRLDCVQELLQDEELFFGLQSVISRFLDTEQLLSVLVQIPKQDTVNAAESKITNLIYLKHTLELVDPLKIAMKNCNTPLLRAYYGSLEDKRFGIILEKIKTVINDDARYMKGCLNMRTQKCYAVRSNINEFLDIARRTYTEIVDDIAGMISQLGEKYSLPLRTSFSSARGFFIQMTTDCIALPSDQLPSEFIKISKVKNSYSFTSADLIKMNERCQESLREIYHMTYMIVCKLLSEIYEHIHCLYKLSDTVSMLDMLLSFAHACTLSDYVRPEFTDTLAIKQGWHPILEKISAEKPIANNTYVTEGSNFLIITGPNMSGKSTYLKQIALCQIMAQIGSYVPAEYSSFRIAKQIFTRISTDDDIETNSSTFMKEMKEIAYILHNANDKSLILIDELGRGTNTEEGIGICYAVCEYLLSLKAFTLFATHFLELCHIDALYPNVENMHFEVQHVKNTSRNKEAILYTYKLSKGLTEEKNYGLKAAEVSSLPPSIVLDAKEITTQITRQILQNQRSTPEMERQRAVYHLATRLVQTARNSQLDPDSLRIYLSNLKKKYKEDFPRTEQVPEKTEE

Source: publication doi:10.1101/2025.09.04.674312
